# Library screening results

The chains behind the UniProt entries cited, without tags or fusion partners.
UniProt E9BF75, entry or part of it: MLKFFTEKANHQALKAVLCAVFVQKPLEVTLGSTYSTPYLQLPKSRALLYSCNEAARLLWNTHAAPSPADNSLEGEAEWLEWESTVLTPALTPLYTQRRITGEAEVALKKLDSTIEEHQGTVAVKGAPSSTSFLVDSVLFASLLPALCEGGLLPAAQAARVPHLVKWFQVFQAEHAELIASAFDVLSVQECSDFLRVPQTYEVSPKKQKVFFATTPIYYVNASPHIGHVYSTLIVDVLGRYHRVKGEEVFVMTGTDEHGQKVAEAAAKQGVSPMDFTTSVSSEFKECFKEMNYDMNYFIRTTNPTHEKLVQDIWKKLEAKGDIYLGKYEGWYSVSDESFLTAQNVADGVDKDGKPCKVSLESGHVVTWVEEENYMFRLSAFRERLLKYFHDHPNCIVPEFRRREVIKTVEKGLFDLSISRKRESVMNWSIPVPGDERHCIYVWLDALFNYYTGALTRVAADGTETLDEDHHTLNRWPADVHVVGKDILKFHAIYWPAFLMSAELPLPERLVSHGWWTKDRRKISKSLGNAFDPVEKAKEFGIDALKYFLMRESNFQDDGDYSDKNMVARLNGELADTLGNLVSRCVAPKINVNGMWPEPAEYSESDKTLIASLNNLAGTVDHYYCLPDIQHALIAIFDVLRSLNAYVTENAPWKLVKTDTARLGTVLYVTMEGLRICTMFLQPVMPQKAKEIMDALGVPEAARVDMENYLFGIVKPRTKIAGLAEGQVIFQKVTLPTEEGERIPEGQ

Results are percentages, as filed.
The controls that fix the scale are not given in the record; negative values are as filed.
Compounds were drawn at random from those tested, without regard to their results.

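Methionyl-tRNA synthetase (putative), Leishmania donovani (UniProt E9BF75). Primary screen of methionyl-tRNA synthetase; the read-out is not stated. The test concentration is not given. The values are filed as inhibition. Size under these conditions: about 68,000 compounds, about 24 of them at 50% or above in at least one test.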

| # | structure | inhibition |
|---|---|---|
| 1 | `CC(Cc1ccccc1F)NC(=O)CCc1nc(-c2nnc[nH]2)no1` (centres unmarked) | 13.04 |
| 2 | `Cc1nc(C2CCCN2C(=O)CCc2ccccc2)ncc1C(N)=O` (centres unmarked) | 11 |
| 3 | `Cc1nnc2n1CC(CNc1ncnc3ccccc13)CC2` (centres unmarked) | 20.64 |
| 4 | `Cc1cccc(S(=O)(=O)NCc2cccc(CS(C)(=O)=O)c2)c1` | 4.79 |
| 5 | `COC(=O)CCCNC(=O)c1cc(COc2cncc(Cl)c2)on1` | 7.754 |
| 6 | `CC(=O)NC(CC(=O)Nc1nc(C)c(C)s1)c1ccccc1` (centres unmarked) | 12.13 |
| 7 | `COc1ccnc(N2CCN(C(C)c3nc(C)no3)CC2)n1` (centres unmarked) | 6.69 |
| 8 | `Cc1cc(C(=O)N2CCCCC2C)ccc1NCC(=O)N1CCOCC1` (centres unmarked) | 3.644 |
| 9 | `COc1ccc2nnc(CCCC(=O)NCCc3ccccc3)n2n1` | 9.044 |
| 10 | `CCc1noc(C)c1C(=O)N1CCCC(n2nc(C)nc2C)C1` (centres unmarked) | 14.21 |
| 11 | `COCCN1C[C@H]2[C@@H](C1)N(C(=O)c1cccc(OC)c1)CC[C@H]2OC` | 8.75 |
| 12 | `CN1CC[C@@H]2[C@@H](CO[C@H]2CNC(=O)c2nccn2C)C1` | 16.25 |
| 13 | `CCC(CO)NC(=O)NCc1cc(C#N)ccc1F` (centres unmarked) | 11.63 |
| 14 | `CC1(C)CN(Cc2nnc(-c3cccnc3)o2)CC[C@]1(C)O` | 7.246 |
| 15 | `COc1cccc(S(=O)(=O)CCN2CCCC2c2ccc[nH]2)c1` (centres unmarked) | 10.56 |
| 16 | `CN1CCCC(CCCc2cccnc2)(C(N)=O)C1` (centres unmarked) | 19.77 |
| 17 | `CNC(=O)[C@@H](C1CCCCC1)N1CCC[C@H]1C(=O)NC1CC1` | 7.692 |
| 18 | `Cc1cnc(NCc2ccc(S(=O)(=O)N(C)C(C)C)cc2)nc1C` | 23.74 |
| 19 | `CC(C)CCN1CCC2(CNS(=O)(=O)c3cccnc3O2)C1` (centres unmarked) | 1.714 |
| 20 | `O=S(=O)(N1CCCC1)N1CC[C@H](c2ccccc2)[C@H]2NCCCC[C@H]21` | 14.79 |
| 21 | `COc1cc(C)ccc1OCCC(=O)N1CCCC(n2cncn2)C1` (centres unmarked) | 6.266 |
| 22 | `Cc1cc(NC(=O)C(c2cccc(F)c2)N2CCOCC2)ccn1` (centres unmarked) | 14.08 |
| 23 | `CN(Cc1ccco1)C(=O)[C@H]1CSCN1C(=O)OC(C)(C)C` | 11.02 |
| 24 | `COCCn1ccnc1-c1cc(CN2CCCCC2)cs1` | 1.375 |
| 25 | `Cc1ccccc1C(=O)N1CCC2(CC1)CC(c1cnn(C)c1)CO2` (centres unmarked) | 13.93 |
| 26 | `CCC1COCCN1C(=O)NCc1nccn1CCc1ccccc1` (centres unmarked) | 13.13 |
| 27 | `CCc1ccc(CN2CCN(c3ncc(Cl)cn3)CC2)nc1` | 14.81 |
| 28 | `O=C1CO[C@H](c2ccc(NS(=O)(=O)c3ccccc3)cc2)[C@@H](CO)N1` | 6.767 |
| 29 | `Cc1nc[nH]c1-c1nccn1CCCN(C)C` | 9.938 |
| 30 | `CS(=O)(=O)NCCNC(=O)C1(c2cccc(Cl)c2)CC1` | 15.93 |
| 31 | `Cc1ccc(N2CCC3(CC2)CNC(=O)CO3)nn1` | 18.25 |
| 32 | `c1ccc(Oc2cc(CNCC3CNc4ccnn4C3)ccn2)cc1` (centres unmarked) | 28.47 |
| 33 | `Cc1csc(Nc2nccnc2C2CCCN2C(=O)C(C)C)n1` (centres unmarked) | 10.84 |
| 34 | `O=C(c1ccco1)N1CCO[C@@H]2CN(c3ncc(F)cn3)CC[C@@H]2C1` | 12.8 |
| 35 | `CCn1c(N)nc2cc(C(=O)N3Cc4ccccc4C3)cnc21` | 2.481 |
| 36 | `O=C(O)[C@@H]1CN(C(=O)c2cc(C3CC3)n[nH]2)C[C@H]1c1cccc(F)c1` | 18.5 |
| 37 | `Cc1cc(F)ccc1-n1cc(O)c(C(N)=O)n1` | 13.82 |
| 38 | `O=C(c1cccnc1Oc1ccc(Cl)cc1)N1CC[C@@H](O)C1` | -9.167 |
| 39 | `CN1CCC(NC(=O)CCCc2cc(Cl)sc2Cl)C1=O` (centres unmarked) | 3.958 |
| 40 | `OC(CN1CCN(Cc2cc(F)cc(F)c2)CC1)C1CC1` (centres unmarked) | 1.748 |
| 41 | `FC(F)CNc1cnc(C2CCNCC2)cn1` | 7.812 |
| 42 | `Cc1nc(CN2CC3(CCN(c4ncc(F)cn4)C3)CC2=O)cs1` (centres unmarked) | 15.69 |
| 43 | `COC(=O)N1CCC(Oc2ccc(C(=O)NCCN(C)C)cc2Cl)CC1` | 9.253 |
| 44 | `CCn1cc(S(=O)(=O)N2CCN(S(=O)(=O)c3ccc(Br)s3)CC2)cn1` | 17.12 |
| 45 | `Cc1nc(C)n(CC2CCCN(Cc3cc(C#N)ccc3F)C2)n1` (centres unmarked) | 23.33 |

For reference, 3 entries once more:

structure,inhibition
CCc1ccc(CN2CCN(c3ncc(Cl)cn3)CC2)nc1,14.81
Cc1nc(C2CCCN2C(=O)CCc2ccccc2)ncc1C(N)=O (centres unmarked),11
Cc1cnc(NCc2ccc(S(=O)(=O)N(C)C(C)C)cc2)nc1C,23.74

Data taken from ChEMBL document CHEMBL3988442, “University of Dundee, Small-Polar-MMV Screening Library” (2021).